This is one part of the list.

The test deals with T1, OsSMF1 (Oryza sativa, UniProt Q6ZLB0 1-436).
T1 sequence: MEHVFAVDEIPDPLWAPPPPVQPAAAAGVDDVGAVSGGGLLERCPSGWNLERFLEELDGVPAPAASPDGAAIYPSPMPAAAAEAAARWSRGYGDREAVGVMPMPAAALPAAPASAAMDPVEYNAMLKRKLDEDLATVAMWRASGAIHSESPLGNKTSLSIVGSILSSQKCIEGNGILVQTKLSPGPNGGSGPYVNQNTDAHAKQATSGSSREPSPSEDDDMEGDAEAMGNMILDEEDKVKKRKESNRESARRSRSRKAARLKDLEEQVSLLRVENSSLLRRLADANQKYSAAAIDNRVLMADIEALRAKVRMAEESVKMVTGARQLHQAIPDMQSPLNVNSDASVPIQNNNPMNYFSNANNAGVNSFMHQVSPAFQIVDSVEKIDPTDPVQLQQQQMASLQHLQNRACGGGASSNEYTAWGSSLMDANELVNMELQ
The test can be described thus: protein-binding microarray (RPBM); PBS, 2% BSA, 51.3 ng/ul salmon testes DNA, 50 uM zinc acetate, 200 nM TF, 25 C, 1 h; high values mean tight binding. The conditions noted are these: protein: recombinant; tags: N-terminal polyhistidine and DsRed monomer fusion (pET32a); chain copies: 2; label: CyDye5-dUTP incorporated in the synthesized complementary strand; 3' TTTTT single-stranded linker to array surface; dsDNA, one strand shown. The method, boiled down:
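A custom Agilent array was converted to double-stranded form by primer extension with Cy5-dUTP and blocked with 2% BSA. Protein at 200 nM in PBS with 2% BSA, salmon testes DNA and 50 µM zinc acetate was applied for 1 h at 25 °C, followed by washing. The proteins were polyhistidine–DsRed N-terminal fusions of transcription factors, expressed in E. coli BL21-CodonPlus and Ni–NTA-purified. The binding signal is per-feature fluorescence intensity (arbitrary units) from an Axon 4000B scanner.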
In the case of “TGGCTGTGGCATCCGTGATGACGATGATGACCTTGACGGCCGGAGTCACCTAGTGCAG”, the binding signal was 4020 fluorescence intensity (a.u.). In the case of “GGAGAATTGGACACGTCAGCGTCATCCAGGCTCCCAGCAGCGGAGTCACCTAGTGCAG”, the binding signal is 27600 fluorescence intensity (a.u.).

As to “CTACGGTGATGTGCCATGTCCCCTTCATGGGTCAACATGTCGGAGTCACCTAGTGCAG”, the binding signal was 3210 fluorescence intensity (a.u.).

For “CCAACGTGTCCACTCACGGCTTACACGTGCCACGCCCATCCGGAGTCACCTAGTGCAG”, the binding signal is 8410 fluorescence intensity (a.u.).

With “GGAGCACTGTGTAGCGGGTCCTCCAAGTACCTAACCCGTTCGGAGTCACCTAGTGCAG”, the binding signal is 3150 fluorescence intensity (a.u.). The figure for “CCGATCAACGTTTAATGTGACACCTATAAATTTCTCTTTTCGGAGTCACCTAGTGCAG” is 3590 fluorescence intensity (a.u.); for “CATGAACTCGGAGGGAGGGATTGGCGCTGGCATAACCAATCGGAGTCACCTAGTGCAG” it is 18200 fluorescence intensity (a.u.).

On to “CGTGAAAGTGCTTCGAAAGGTGTCAGCAGGTGCGCGGAGCCGGAGTCACCTAGTGCAG”, for which the binding signal is 3530 fluorescence intensity (a.u.).

Take “GGCCGCGGGTGACACGGAGGCAGCCTTCCTGTCCACCTGCCGGAGTCACCTAGTGCAG”: the binding signal is 4690 fluorescence intensity (a.u.). “GAGTGGGCTTACCGCCACCCGCGGTTTGGCAGTTATCGCGCGGAGTCACCTAGTGCAG”: the binding signal is 3520 fluorescence intensity (a.u.). In the case of “GGAGCTCCACAGAACTACAGCTCATCATTGGTGTAAGAGGCGGAGTCACCTAGTGCAG”, the binding signal is 3690 fluorescence intensity (a.u.).

“ATGGCAACAGCAGCAGCCGTACGTTGCCGTCGCCGTCACGCGGAGTCACCTAGTGCAG”: the binding signal is 4060 fluorescence intensity (a.u.). For the sequence “CCCCTAACCCAATCTGGAGTGGTTTTGATCCTACGTGGCACGGAGTCACCTAGTGCAG”, the binding signal was 26700 fluorescence intensity (a.u.). For “CTAGAGGAAGTGGGGAAGCCGACGACCCCACGTCTCGCCACGGAGTCACCTAGTGCAG”, the binding signal was 3940 fluorescence intensity (a.u.). Take “AGAATGTATGCTATGTATGTATAAGTGTAAATACATGTGGCGGAGTCACCTAGTGCAG”: the binding signal was 3510 fluorescence intensity (a.u.). Turning to “GTGCGTATGTGTTGTGAGTATCTGTGTTGTACTGTGTAATCGGAGTCACCTAGTGCAG”, the binding signal is 3530 fluorescence intensity (a.u.). As for “GCCTACGAAGCCGGAGCCTACGAGGAGCCAAGTCATCGGGCGGAGTCACCTAGTGCAG”, the binding signal was 6200 fluorescence intensity (a.u.). On to “ACTCGCCCGGTGTGCTGCAGCCTGCAGCCGCCGCCGTCAGCGGAGTCACCTAGTGCAG”, for which the binding signal is 3420 fluorescence intensity (a.u.). “CTCTTACCCTGAATTTCTGTCATTAACACAATGGCTCAGGCGGAGTCACCTAGTGCAG”: the binding signal is 3440 fluorescence intensity (a.u.).

For the sequence “TTTTCATTTCAGACGTGTGCAACTCTCTGTTCTTTACTCCCGGAGTCACCTAGTGCAG”, the binding signal was 5130 fluorescence intensity (a.u.).

Regarding “GGATTGGCGACTCGACGTTGACAACATGACATATGAGGTACGGAGTCACCTAGTGCAG”, the binding signal is 4210 fluorescence intensity (a.u.).

As to “ACAGGATGCGTCTTCACATATGACGTGGTTGAGGCTTATGCGGAGTCACCTAGTGCAG”, the binding signal is 11200 fluorescence intensity (a.u.).

Consider “AGACATCTTGATCTCAAGACGTCACATAGGACAGAACCACCGGAGTCACCTAGTGCAG”, for which the binding signal was 4480 fluorescence intensity (a.u.). With “CTCCATCTCGGCCGTCCGTACCTACACGTGTAGGCCGATCCGGAGTCACCTAGTGCAG”, the binding signal is 3830 fluorescence intensity (a.u.). Take “TAATGAATTAGGGCATTGGATGTACCAACTTATGTTATATCGGAGTCACCTAGTGCAG”: the binding signal is 23300 fluorescence intensity (a.u.). As for “GACTGTTTCGATTAGGCCAGCAACCTCACCTCTCCTATATCGGAGTCACCTAGTGCAG”, the binding signal was 5030 fluorescence intensity (a.u.).

As for “ACCTGCACACCCACGACACGTCGCGCCGCTCATGCCCTTTCGGAGTCACCTAGTGCAG”, the binding signal is 5650 fluorescence intensity (a.u.). As for “GTTTGGAAACTTCTCTCGTGCGAAAGTTAAACGGGATGATCGGAGTCACCTAGTGCAG”, the binding signal was 3180 fluorescence intensity (a.u.). In the case of “CGTCATTCGAGCCCACTAACATTAACGAGCCACGTTTATTCGGAGTCACCTAGTGCAG”, the binding signal is 4180 fluorescence intensity (a.u.). For the sequence “GGTCGCGTCGCCCCGCTCCAACTCTCCAAGCGGAAACACACGGAGTCACCTAGTGCAG”, the binding signal is 11600 fluorescence intensity (a.u.). Then “GATGGGGTGAGTTCTGGGCGTATCCACGTAGGATTTCTACCGGAGTCACCTAGTGCAG”, with 8320 fluorescence intensity (a.u.); and “TAGCTCTGGCGGTGATGGGCGGTGATGCAGAGGAGACAAGCGGAGTCACCTAGTGCAG”, with 32300 fluorescence intensity (a.u.); and “CACTTCTCCACGACGACGCGTCCTCCGCTGTATATGCCCCCGGAGTCACCTAGTGCAG”, with 4280 fluorescence intensity (a.u.).

Consider “CTGTGGGCCAGCGCCCACGGTGTCACGCCCGCGCACACCTCGGAGTCACCTAGTGCAG”, for which the binding signal was 3870 fluorescence intensity (a.u.). For the sequence “TGAGCCCCGCCGTGGCACCGCGTGTCGACCTCGTGGTGCTCGGAGTCACCTAGTGCAG”, the binding signal was 5800 fluorescence intensity (a.u.). “GTACTACTCCCTCCGTTTCTCCCTCCGTTTCAAAATGTTTCGGAGTCACCTAGTGCAG”: the binding signal is 3220 fluorescence intensity (a.u.). In the case of “TAATGAATCTAGTCAGATATACGCATCTAGATTTATTAACCGGAGTCACCTAGTGCAG”, the binding signal was 4390 fluorescence intensity (a.u.).

For “CGCACGTACACACCACACCGGCCTACGTGGGTGTATCCTACGGAGTCACCTAGTGCAG”, the binding signal is 5500 fluorescence intensity (a.u.). “AGCTCGCGGATTTTGGCTGCCGCGTGTATAAATGCTCCCGCGGAGTCACCTAGTGCAG”: the binding signal is 6120 fluorescence intensity (a.u.). Consider “TGAGACTAGCTAAGTACACATCCCCAGCCTAGCCGAGTCACGGAGTCACCTAGTGCAG”, for which the binding signal is 3570 fluorescence intensity (a.u.).

On to “CCGGCCAACTAAAATGGGCCGCACGTCAGCCGCACAATTACGGAGTCACCTAGTGCAG”, for which the binding signal is 5670 fluorescence intensity (a.u.). The figure for “CCCCACATGCTGACATGTCCCCACTCGATCGTCGATCCCCCGGAGTCACCTAGTGCAG” is 8720 fluorescence intensity (a.u.).

With “TAATTCGGTTCCCTGACACGGCTGTCGCCGCGGAAACCGTCGGAGTCACCTAGTGCAG”, the binding signal is 3150 fluorescence intensity (a.u.). The figure for “ACAAACTCTATCCCTACGTCATATCTGAAGATTCTTTTCTCGGAGTCACCTAGTGCAG” is 4480 fluorescence intensity (a.u.); for “GGACTCGGACCAGTCAGGCCCACAATTGTTGCGCTCAGCCCGGAGTCACCTAGTGCAG” it is 31700 fluorescence intensity (a.u.); for “CTGCGCATGCCGGCTCTAATGATGTGACAATGCAATGGCACGGAGTCACCTAGTGCAG” it is 4300 fluorescence intensity (a.u.). Take “TGCTCTAGTACACCTCATAATTACGTTAGCCAACTTTAGCCGGAGTCACCTAGTGCAG”: the binding signal is 5540 fluorescence intensity (a.u.). With “GAAATTCAAATTCAAATTATTGAAACCGAGTCATATAGCACGGAGTCACCTAGTGCAG”, the binding signal was 3190 fluorescence intensity (a.u.). Turning to “TCCACCTTCTCTCATATCACCACAGTCATCTTGCCAAGTGCGGAGTCACCTAGTGCAG”, the binding signal was 4740 fluorescence intensity (a.u.).

Turning to “GCGTGCCAGCAAGTATTATGCTGGCAGCTTCCAACAGGAACGGAGTCACCTAGTGCAG”, the binding signal was 3760 fluorescence intensity (a.u.).

Turning to “TGATTAATTAACCGAAAAGTGTGTAAAGCAAATGTTTTGGCGGAGTCACCTAGTGCAG”, the binding signal was 27100 fluorescence intensity (a.u.).

In the case of “ATGCACGCATGACGCCATCGTTGCTCGCGAGTGTGCTCACCGGAGTCACCTAGTGCAG”, the binding signal is 4450 fluorescence intensity (a.u.). For “CGGCTAGAGGGAGTATTACGTCACATCAAAGGGTGGAAAACGGAGTCACCTAGTGCAG”, the binding signal was 6460 fluorescence intensity (a.u.). Then “AGGAGGAGGAGGAGGAGGAGGGGATTGTGACTTGTGATCTCGGAGTCACCTAGTGCAG”, with 3890 fluorescence intensity (a.u.).

The values above are taken from paper PMC7819943, “Rice protein-binding microarrays: a tool to detect cis-acting elements near promoter regions in rice”.
